Data source: PubChem BioAssay AID1259254 (NCATS, 2017)
Screen: 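Genome-wide screen for genes that prevent DNA re-replication in cancer cells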 (primary screen). System: human HCT116 colorectal cancer cells. Knock-down reagent: single siRNA against human genes. Time to read-out: 3 days. Measured: 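Imaged Hoechst DNA stain sorts each cell into a cycle phase by DNA amount; per plate, G2 fraction set to 0% for non-targeting and 100% for GMNN siRNA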. Scale: G2 robust z-score and G2 cells, % of GMNN control: higher = more G2 cells, more excess DNA replication; raw share of cells in G2: higher = larger share of cells with G2 DNA content. Active means: 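An siRNA counts as active if its G2 robust z-score lies at least 5 MADs above the screen median; here such calls match roughly 38% of GMNN control or more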.
The deposit covers about 59,000 reagents; this is a part drawn at random. Of all reagents, about 1,550 (2.6%) were called active. 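G2 share is only a proxy for re-replication; each gene was hit by three separate siRNAs, and active genes were retested.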 The raw values are shown without normalisation. Reagents against one gene are numbered here. Not stated in the record: the amount of reagent.

| Target gene | reagent no. | G2 robust z-score | G2 cells, % of GMNN control | raw share of cells in G2 (%) | Call |
| --- | --- | --- | --- | --- | --- |
| ADAMTS20 | 1 | 0.646 | 7.51 | 8.77 | inactive |
| ADAMTS20 | 2 | 1.17 | 11.2 | 8.17 | inactive |
| ADAMTS20 | 3 | -0.381 | 0.287 | 4.37 | inactive |
| CASQ1 | 1 | 0.411 | 5.86 | 5.79 | inactive |
| CASQ1 | 2 | 0.467 | 6.25 | 7.77 | inactive |
| CASQ1 | 3 | -0.19 | 1.63 | 3.7 | inactive |
| PCDH7 | 1 | -0.312 | 0.773 | 3.46 | inactive |
| PCDH7 | 2 | 0.636 | 7.45 | 8.02 | inactive |
| PCDH7 | 3 | -0.25 | 1.21 | 5.24 | inactive |
| RPTN | 1 | 0.392 | 5.73 | 6.33 | inactive |
| RPTN | 2 | -0.342 | 0.561 | 3.28 | inactive |
| RPTN | 3 | -0.897 | -3.34 | 1.37 | inactive |
| HECW2 | 1 | -0.52 | -0.693 | 4.1 | inactive |
| HECW2 | 2 | -0.782 | -2.54 | 4.6 | inactive |
| HECW2 | 3 | 0.0532 | 3.34 | 5.44 | inactive |
| BCL2L15 | 1 | 1.19 | 11.4 | 8.01 | inactive |
| BCL2L15 | 2 | -0.443 | -0.151 | 3.36 | inactive |
| BCL2L15 | 3 | -0.897 | -3.34 | 1.98 | inactive |
| CNGA1 | 1 | -1.16 | -5.21 | 3.39 | inactive |
| CNGA1 | 2 | -0.413 | 0.0622 | 4.8 | inactive |
| CNGA1 | 3 | 0.775 | 8.42 | 7.66 | inactive |
| UBXN7 | 1 | 0.753 | 8.26 | 7.52 | inactive |
| UBXN7 | 2 | -0.485 | -0.448 | 3.75 | inactive |
| UBXN7 | 3 | -0.21 | 1.49 | 3.82 | inactive |
| ATG12 | 1 | -0.903 | -3.39 | 3.63 | inactive |
| ATG12 | 2 | -0.548 | -0.89 | 3.54 | inactive |
| ATG12 | 3 | 1.26 | 11.8 | 7.53 | inactive |
| UNC45B | 1 | 7.85 | 58.2 | 23.3 | active |
| UNC45B | 2 | -0.769 | -2.44 | 2.16 | inactive |
| UNC45B | 3 | -0.645 | -1.57 | 2.52 | inactive |
| GSK3B | 1 | 1.66 | 14.7 | 10.4 | inactive |
| GSK3B | 2 | -1.19 | -5.43 | 3.58 | inactive |
| GSK3B | 3 | 1.04 | 10.3 | 7.65 | inactive |
| TPST1 | 1 | 0.543 | 6.79 | 7.65 | inactive |
| TPST1 | 2 | -0.916 | -3.47 | 2.96 | inactive |
| TPST1 | 3 | 2.58 | 21.1 | 12.3 | inactive |
| EXTL3 | 1 | 0.69 | 7.82 | 8.08 | inactive |
| EXTL3 | 2 | -0.968 | -3.84 | 3.8 | inactive |
| EXTL3 | 3 | -0.881 | -3.23 | 2.51 | inactive |
| PCDHA7 | 1 | 0.21 | 4.45 | 8.38 | inactive |
| PCDHA7 | 2 | -0.588 | -1.17 | 4.02 | inactive |
| PCDHA7 | 3 | -0.493 | -0.5 | 4.13 | inactive |

Continued, starting with the last 9 of the part before.
| Target gene | reagent no. | G2 robust z-score | G2 cells, % of GMNN control | raw share of cells in G2 (%) | Call |
| --- | --- | --- | --- | --- | --- |
| TPST1 | 1 | 0.543 | 6.79 | 7.65 | inactive |
| TPST1 | 2 | -0.916 | -3.47 | 2.96 | inactive |
| TPST1 | 3 | 2.58 | 21.1 | 12.3 | inactive |
| EXTL3 | 1 | 0.69 | 7.82 | 8.08 | inactive |
| EXTL3 | 2 | -0.968 | -3.84 | 3.8 | inactive |
| EXTL3 | 3 | -0.881 | -3.23 | 2.51 | inactive |
| PCDHA7 | 1 | 0.21 | 4.45 | 8.38 | inactive |
| PCDHA7 | 2 | -0.588 | -1.17 | 4.02 | inactive |
| PCDHA7 | 3 | -0.493 | -0.5 | 4.13 | inactive |
| KLF4 | 1 | -0.526 | -0.734 | 3.28 | inactive |
| KLF4 | 2 | 0.95 | 9.65 | 10.3 | inactive |
| KLF4 | 3 | 0.431 | 6 | 5.85 | inactive |
| CCN3 | 1 | -1.11 | -4.81 | 2.93 | inactive |
| CCN3 | 2 | -1.6 | -8.3 | 0.941 | inactive |
| CCN3 | 3 | -0.48 | -0.411 | 3.21 | inactive |
| C3orf85 | 1 | -0.303 | 0.838 | 4.12 | inactive |
| C3orf85 | 2 | -0.405 | 0.115 | 3.56 | inactive |
| C3orf85 | 3 | -0.164 | 1.81 | 5.54 | inactive |
| CA5B | 1 | -0.45 | -0.2 | 4.09 | inactive |
| CA5B | 2 | -0.784 | -2.55 | 2.99 | inactive |
| CA5B | 3 | -0.053 | 2.59 | 7.41 | inactive |
| CPD | 1 | 1.23 | 11.6 | 9.61 | inactive |
| CPD | 2 | -0.715 | -2.06 | 4.18 | inactive |
| CPD | 3 | -1.06 | -4.46 | 2.25 | inactive |
| IHH | 1 | 1.16 | 11.1 | 9.43 | inactive |
| IHH | 2 | 1.4 | 12.8 | 9.44 | inactive |
| IHH | 3 | -0.412 | 0.0684 | 3.94 | inactive |
| FAM110D | 1 | -0.417 | 0.0319 | 4.46 | inactive |
| FAM110D | 2 | -0.945 | -3.68 | 2.69 | inactive |
| FAM110D | 3 | -0.374 | 0.333 | 2.47 | inactive |
| PTGES | 1 | 0.697 | 7.87 | 7.94 | inactive |
| PTGES | 2 | -1.3 | -6.18 | 2.87 | inactive |
| PTGES | 3 | -0.94 | -3.65 | 1.96 | inactive |
| LYVE1 | 1 | 7.22 | 53.8 | 26.1 | active |
| LYVE1 | 2 | -1.21 | -5.55 | 1.84 | inactive |
| LYVE1 | 3 | -0.44 | -0.129 | 3.13 | inactive |
